# Source: article PMC4405354
# These are yes or no findings as the source states them, for the method shown. For some assays here: Binding seen in cells or lysates may run through a third protein. Some entries that bind do so weakly or less than the wild type. For some assays here: Sequences can lack the tags named with a protein.
# T1: FLAG-MFN1^T562D (UniProt Q8R4Z9)
# T1 sequence: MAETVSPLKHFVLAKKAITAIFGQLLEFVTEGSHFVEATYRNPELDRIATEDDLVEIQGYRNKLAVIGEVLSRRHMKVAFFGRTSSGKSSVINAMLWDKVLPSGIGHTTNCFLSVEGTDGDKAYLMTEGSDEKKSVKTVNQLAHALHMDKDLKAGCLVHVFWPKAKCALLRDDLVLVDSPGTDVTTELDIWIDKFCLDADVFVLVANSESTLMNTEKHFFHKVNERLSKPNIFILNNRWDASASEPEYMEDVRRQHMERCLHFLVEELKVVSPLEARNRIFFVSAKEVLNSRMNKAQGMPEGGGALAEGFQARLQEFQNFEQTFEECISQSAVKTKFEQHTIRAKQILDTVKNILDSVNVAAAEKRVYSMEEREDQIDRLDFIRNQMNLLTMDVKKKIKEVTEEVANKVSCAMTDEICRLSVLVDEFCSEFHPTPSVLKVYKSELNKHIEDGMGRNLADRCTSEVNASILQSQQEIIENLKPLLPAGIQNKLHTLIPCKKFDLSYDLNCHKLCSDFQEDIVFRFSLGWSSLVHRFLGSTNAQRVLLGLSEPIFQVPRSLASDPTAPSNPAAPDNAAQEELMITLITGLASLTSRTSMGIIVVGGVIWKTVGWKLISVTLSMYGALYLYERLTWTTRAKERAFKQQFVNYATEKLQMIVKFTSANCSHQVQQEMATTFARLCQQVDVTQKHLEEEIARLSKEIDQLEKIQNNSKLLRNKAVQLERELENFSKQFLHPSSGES
# Legend:
# [1] = target: BAK (mouse (endogenous in MEFs)) (UniProt O08734); assay: cross-linking; mitochondria isolated from MEFs (0.5 mg/ml in EB, 25°C) treated with cBID, cross-linked with BMH; SDS-PAGE and anti-BAK immunoblot; cells treated with EGF or expressing MFN1 variants where indicated
# FLAG-MFN1^T562D = target: T1, FLAG-MFN1^T562D; assay: co-IP; anti-FLAG immunoprecipitation from lysates of transfected Mfn1-/- or Mfn2-/- MEFs; lysis in CPBS (6 mM CHAPS in PBS pH 7.4); antibody 1:50, 14 hr, 4°C; protein G-coated magnetic beads; SDS-PAGE and immunoblot
# [2] = target: MFN1 (wild type) in reconstituted Mfn1-/- MEFs (UniProt Q8R4Z9); assay: sucrose-gradient centrifugation; mitochondria from reconstituted Mfn1-/- MEFs homotypically mixed, 1 mM GTP 30 min 25°C, solubilized with 1% digitonin; 5%-20% discontinuous sucrose gradient, 174,000 x g, 12 hr, 4°C; fractions 12-19 immunoblotted
# [3] = target: MFN1^T562A in reconstituted Mfn1-/- MEFs (UniProt Q8R4Z9); assay: as above
# [4] = target: MFN1^T562D in reconstituted Mfn1-/- MEFs (UniProt Q8R4Z9); assay: as above
binder,measurement,setting,value
"BAK (protein, UniProt O08734 1-209) MASGQGPGPPKVGCDESPSPSEQQVAQDTEEVFRSYVFYLHQQEQETQGAAAPANPEMDNLPLEPNSILGQVGRQLALIGDDINRRYDTEFQNLLEQLQPTAGNAYELFTKIASSLFKSGISWGRVVALLGFGYRLALYVYQRGLTGFLGQVTCFLADIILHHYIARWIAQRGGWVAALNFRRDPILTVMVIFGVVLLGQFVVHRFFRS",binding,[1],binds
same,binding,FLAG-MFN1^T562D,binds
"MFN1 (wild type) in reconstituted Mfn1-/- MEFs (protein, UniProt Q8R4Z9 1-741) MAETVSPLKHFVLAKKAITAIFGQLLEFVTEGSHFVEATYRNPELDRIATEDDLVEIQGYRNKLAVIGEVLSRRHMKVAFFGRTSSGKSSVINAMLWDKVLPSGIGHTTNCFLSVEGTDGDKAYLMTEGSDEKKSVKTVNQLAHALHMDKDLKAGCLVHVFWPKAKCALLRDDLVLVDSPGTDVTTELDIWIDKFCLDADVFVLVANSESTLMNTEKHFFHKVNERLSKPNIFILNNRWDASASEPEYMEDVRRQHMERCLHFLVEELKVVSPLEARNRIFFVSAKEVLNSRMNKAQGMPEGGGALAEGFQARLQEFQNFEQTFEECISQSAVKTKFEQHTIRAKQILDTVKNILDSVNVAAAEKRVYSMEEREDQIDRLDFIRNQMNLLTMDVKKKIKEVTEEVANKVSCAMTDEICRLSVLVDEFCSEFHPTPSVLKVYKSELNKHIEDGMGRNLADRCTSEVNASILQSQQEIIENLKPLLPAGIQNKLHTLIPCKKFDLSYDLNCHKLCSDFQEDIVFRFSLGWSSLVHRFLGSTNAQRVLLGLSEPIFQVPRSLASTPTAPSNPAAPDNAAQEELMITLITGLASLTSRTSMGIIVVGGVIWKTVGWKLISVTLSMYGALYLYERLTWTTRAKERAFKQQFVNYATEKLQMIVKFTSANCSHQVQQEMATTFARLCQQVDVTQKHLEEEIARLSKEIDQLEKIQNNSKLLRNKAVQLERELENFSKQFLHPSSGES",binding,[2],binds
"MFN1^T562A in reconstituted Mfn1-/- MEFs (protein, UniProt Q8R4Z9 1-741) MAETVSPLKHFVLAKKAITAIFGQLLEFVTEGSHFVEATYRNPELDRIATEDDLVEIQGYRNKLAVIGEVLSRRHMKVAFFGRTSSGKSSVINAMLWDKVLPSGIGHTTNCFLSVEGTDGDKAYLMTEGSDEKKSVKTVNQLAHALHMDKDLKAGCLVHVFWPKAKCALLRDDLVLVDSPGTDVTTELDIWIDKFCLDADVFVLVANSESTLMNTEKHFFHKVNERLSKPNIFILNNRWDASASEPEYMEDVRRQHMERCLHFLVEELKVVSPLEARNRIFFVSAKEVLNSRMNKAQGMPEGGGALAEGFQARLQEFQNFEQTFEECISQSAVKTKFEQHTIRAKQILDTVKNILDSVNVAAAEKRVYSMEEREDQIDRLDFIRNQMNLLTMDVKKKIKEVTEEVANKVSCAMTDEICRLSVLVDEFCSEFHPTPSVLKVYKSELNKHIEDGMGRNLADRCTSEVNASILQSQQEIIENLKPLLPAGIQNKLHTLIPCKKFDLSYDLNCHKLCSDFQEDIVFRFSLGWSSLVHRFLGSTNAQRVLLGLSEPIFQVPRSLASAPTAPSNPAAPDNAAQEELMITLITGLASLTSRTSMGIIVVGGVIWKTVGWKLISVTLSMYGALYLYERLTWTTRAKERAFKQQFVNYATEKLQMIVKFTSANCSHQVQQEMATTFARLCQQVDVTQKHLEEEIARLSKEIDQLEKIQNNSKLLRNKAVQLERELENFSKQFLHPSSGES",binding,[3],binds
"MFN1^T562D in reconstituted Mfn1-/- MEFs (protein, UniProt Q8R4Z9 1-741) MAETVSPLKHFVLAKKAITAIFGQLLEFVTEGSHFVEATYRNPELDRIATEDDLVEIQGYRNKLAVIGEVLSRRHMKVAFFGRTSSGKSSVINAMLWDKVLPSGIGHTTNCFLSVEGTDGDKAYLMTEGSDEKKSVKTVNQLAHALHMDKDLKAGCLVHVFWPKAKCALLRDDLVLVDSPGTDVTTELDIWIDKFCLDADVFVLVANSESTLMNTEKHFFHKVNERLSKPNIFILNNRWDASASEPEYMEDVRRQHMERCLHFLVEELKVVSPLEARNRIFFVSAKEVLNSRMNKAQGMPEGGGALAEGFQARLQEFQNFEQTFEECISQSAVKTKFEQHTIRAKQILDTVKNILDSVNVAAAEKRVYSMEEREDQIDRLDFIRNQMNLLTMDVKKKIKEVTEEVANKVSCAMTDEICRLSVLVDEFCSEFHPTPSVLKVYKSELNKHIEDGMGRNLADRCTSEVNASILQSQQEIIENLKPLLPAGIQNKLHTLIPCKKFDLSYDLNCHKLCSDFQEDIVFRFSLGWSSLVHRFLGSTNAQRVLLGLSEPIFQVPRSLASDPTAPSNPAAPDNAAQEELMITLITGLASLTSRTSMGIIVVGGVIWKTVGWKLISVTLSMYGALYLYERLTWTTRAKERAFKQQFVNYATEKLQMIVKFTSANCSHQVQQEMATTFARLCQQVDVTQKHLEEEIARLSKEIDQLEKIQNNSKLLRNKAVQLERELENFSKQFLHPSSGES",binding,[4],binds
